# Measured values taken from PubChem BioAssay AID330 (DTP/NCI, 2004).
# The list does not hold the whole screen: it gathers tests that were run many times, whatever their T/C, doses with no T/C, and many T/C values between a quarter and a half above the control. Other doses and runs of a compound stand elsewhere. T/C: endpoint of the treated group in % of that of the vehicle group. Some doses have a count of surviving animals in place of a T/C: the source holds a T/C of zero for them, seemingly a mark for toxic or unscored doses. Some doses without a T/C left all or most animals alive at the check, yet need not have been tolerated: survival well below the control is almost never listed, so the zero probably covers shortened survival too. Counts of survivors are from the toxicity check (mostly the fifth day) where no day follows; animals may have died later. Schedule codes are those of the source, taken here to give the interval after Q, in days (D) or hours (H), and the number of doses after X. Some entries were tested several times; the values are given in rising order. Some structures stand for samples that the source files as different forms (salt, stereo form or complex); doses refer to the form tested. Counts like (3×) say how often a value occurs here. For survival time, this PubChem deposit counts one and a half times the control or more as active, and values a quarter to a half above the control carry no call in these data; other NCI protocols may use other cut-offs. Some T/C values are followed by the survivors on the day toxicity was checked, most often the fifth; where none is given, no animal had died by that day.
# Test system: P388 leukemia ip, CD2F1 mice, survival T/C
# Experiment: NCI In Vivo Anticancer Drug Screen. Data for tumor model P388 Leukemia (intraperitoneal) in CD2F1 (CDF1) mice
# Conditions: T/C endpoint: median survival time, higher T/C = longer survival
# [1] = dose: 200.0 mg/kg/injection, schedule: Q04DX003 (ip), vehicle: Klucel (hydroxypropylcellulose) (HPC)
# [2] = dose: 400.0 mg/kg/injection, schedule: Q04DX003 (ip), vehicle: Klucel (hydroxypropylcellulose) (HPC)
# [3] = dose: 50.0 mg/kg/injection, schedule: Q01DX009 (ip), vehicle: saline with Tween-80
compound,measurement,setting,value
CC(=O)C1(O)Cc2c(O)c3c(c(O)c2C(OC2CC(N)C(O)C(C)O2)C1)C(=O)c1ccccc1C3=O (stereo not given),T/C,"dose: 0.03 mg/kg/injection, schedule: Q01DX009 (ip), vehicle: water",131 % of control
same,T/C,"dose: 0.05 mg/kg/injection, schedule: Q01DX009 (ip), vehicle: water, evaluated on day 30",133 % of control
same,T/C,"dose: 0.05 mg/kg/injection, schedule: Q01DX009 (ip), vehicle: water, evaluated on day 45",140 % of control
same,T/C,"dose: 0.13 mg/kg/injection, schedule: Q04DX003 (ip), vehicle: water",147 % of control
same,survivor count,"dose: 0.4 mg/kg/injection, schedule: Q01DX009 (ip), vehicle: water",6 of 6
same,T/C,"dose: 0.6 mg/kg/injection, schedule: Q04DX003 (ip), vehicle: water, evaluated on day 30",127 % of control
same,T/C,"dose: 0.6 mg/kg/injection, schedule: Q04DX003 (ip), vehicle: water, evaluated on day 45",145 % of control [5 of 6 alive]
same,survivor count,"dose: 0.8 mg/kg/injection, schedule: Q01DX009 (ip), vehicle: water",5 of 6 and 6 of 6
same,survivor count,"dose: 1.0 mg/kg/injection, schedule: Q04DX003 (ip), vehicle: water",8 of 8
same,T/C,"dose: 1.2 mg/kg/injection, schedule: Q04DX003 (ip), vehicle: water, evaluated on day 30",136 % of control
same,T/C,"dose: 1.2 mg/kg/injection, schedule: Q04DX003 (ip), vehicle: water, evaluated on day 45",138 % of control
same,survivor count,"dose: 1.56 mg/kg/injection, schedule: Q01DX009 (ip), vehicle: water",4 of 6 and 6 of 6
same,survivor count,"dose: 1.6 mg/kg/injection, schedule: Q01DX009 (ip), vehicle: water",4 of 6 and 5 of 6
same,survivor count,"dose: 2.0 mg/kg/injection, schedule: Q01DX005 (ip), vehicle: water",6 of 6
same,survivor count,"dose: 2.4 mg/kg/injection, schedule: Q01DX001 (ip), vehicle: water",6 of 6
same,survivor count,"dose: 3.13 mg/kg/injection, schedule: Q01DX009 (ip), vehicle: water",3 of 6 and 6 of 6
same,survivor count,"dose: 3.2 mg/kg/injection, schedule: Q01DX001 (ip), vehicle: water",3 of 6
same,survivor count,"dose: 4.0 mg/kg/injection, schedule: Q01DX005 (ip), vehicle: water",4 of 6
same,survivor count,"dose: 4.2 mg/kg/injection, schedule: Q01DX001 (ip), vehicle: water",3 of 6
same,survivor count,"dose: 5.6 mg/kg/injection, schedule: Q01DX001 (ip), vehicle: water",5 of 6
same,survivor count,"dose: 6.25 mg/kg/injection, schedule: Q01DX009 (ip), vehicle: water",0 of 6
same,survivor count,"dose: 7.5 mg/kg/injection, schedule: Q01DX001 (ip), vehicle: water",2 of 6
same,survivor count,"dose: 10.0 mg/kg/injection, schedule: Q01DX001 (ip), vehicle: water",1 of 6
same,survivor count,"dose: 12.5 mg/kg/injection, schedule: Q01DX009 (ip), vehicle: water",0 of 6
same,survivor count,"dose: 16.0 mg/kg/injection, schedule: Q01DX005 (oral), vehicle: water",6 of 6
same,survivor count,"dose: 25.0 mg/kg/injection, schedule: Q01DX009 (ip), vehicle: water",0 of 6
COc1cc2c(c(OC)c1OC)CCC1C(=O)NN=C21 (stereo not given),survivor count,"dose: 100.0 mg/kg/injection, schedule: Q04DX003 (ip), vehicle: Klucel (hydroxypropylcellulose) (HPC)",6 of 6
same,survivor count,[1],6 of 6
same,survivor count,[2],6 of 6
CCCCCCCCCCCCCCCCCC[N+](C)(C)C,T/C,"dose: 6.25 mg/kg/injection, schedule: Q01DX009 (ip), vehicle: saline",127 % of control
same,survivor count,"dose: 12.5 mg/kg/injection, schedule: Q01DX009 (ip), vehicle: saline",6 of 6
CC1(O)Oc2c(cc(C(C)(C)C)cc2C(C)(C)C)C1=O (stereo not given),survivor count,"dose: 50.0 mg/kg/injection, schedule: Q01DX009 (ip), vehicle: saline",6 of 6
same,survivor count,"dose: 100.0 mg/kg/injection, schedule: Q01DX009 (ip), vehicle: saline",6 of 6
same,survivor count,"dose: 200.0 mg/kg/injection, schedule: Q01DX009 (ip), vehicle: saline",6 of 6
CCCCOCN(COCCCC)C(C)Cc1ccccc1 (stereo not given),T/C,[3],138 % of control
same,T/C,"dose: 100.0 mg/kg/injection, schedule: Q01DX009 (ip), vehicle: saline with Tween-80",138 % of control
same,T/C,"dose: 200.0 mg/kg/injection, schedule: Q01DX009 (ip), vehicle: saline with Tween-80",141 % of control
O=NN(CCF)C(=O)Oc1cc(Cl)c(Cl)cc1Cl,T/C,"dose: 6.0 mg/kg/injection, schedule: Q01DX005 (ip), vehicle: saline with Tween-80",130 % of control
same,survivor count,"dose: 50.0 mg/kg/injection, schedule: Q01DX005 (ip), vehicle: saline with Tween-80",0 of 6
Oc1c(Cl)cc(Cl)cc1/C=N/c1nc(-c2ccc(Cl)cc2)cs1,survivor count,"dose: 6.25 mg/kg/injection, schedule: Q01DX009 (ip), vehicle: saline with Tween-80",6 of 6
same,survivor count,"dose: 12.5 mg/kg/injection, schedule: Q01DX009 (ip), vehicle: saline with Tween-80",6 of 6
same,survivor count,"dose: 25.0 mg/kg/injection, schedule: Q01DX009 (ip), vehicle: saline with Tween-80",6 of 6
same,survivor count,[3],5 of 6
N#Cc1c(-c2ccc(Cl)cc2)c(-c2ccc(Cl)cc2)nn(CCOC(=O)CCC(=O)OCCn2nc(-c3ccc(Cl)cc3)c(-c3ccc(Cl)cc3)c(C#N)c2=O)c1=O,survivor count,"dose: 200.0 mg/kg/injection, schedule: Q04DX002 (ip), vehicle: distilled water + Tween-80",6 of 6
CC[C@@]1(O)C[C@H](OC2CC(N(C)C)C(OC3CC(O)C(OC4CCC(=O)C(C)O4)C(C)O3)C(C)O2)c2c(cc3c(c2O)C(=O)c2c(O)ccc(O)c2C3=O)[C@H]1C(=O)OC (stereo not given in full),T/C,"dose: 1.0 mg/kg/injection, schedule: Q04DX003 (ip), vehicle: saline with Tween-80","135, 136, 144, 148 % of control"
same,T/C,"dose: 1.56 mg/kg/injection, schedule: Q04DX003 (ip), vehicle: saline",129 and 144 % of control
same,T/C,"dose: 1.56 mg/kg/injection, schedule: Q04DX003 (ip), vehicle: water, evaluated on day 30",136 % of control
same,T/C,"dose: 1.56 mg/kg/injection, schedule: Q04DX003 (ip), vehicle: water, evaluated on day 45",142 % of control
same,T/C,"dose: 2.0 mg/kg/injection, schedule: Q04DX003 (ip), vehicle: saline with Tween-80",142 and 146 % of control
same,T/C,"dose: 2.59 mg/kg/injection, schedule: Q04DX003 (ip), vehicle: saline","127, 138, 144 % of control"
same,T/C,"dose: 2.59 mg/kg/injection, schedule: Q04DX003 (ip), vehicle: water",143 % of control
same,T/C,"dose: 7.2 mg/kg/injection, schedule: Q04DX003 (ip), vehicle: saline",144 % of control
same,survivor count,"dose: 8.0 mg/kg/injection, schedule: Q04DX003 (ip), vehicle: saline with Tween-80",6 of 6 (2×)
same,survivor count,"dose: 12.0 mg/kg/injection, schedule: Q04DX003 (ip), vehicle: saline",8 of 8
same,survivor count,"dose: 12.0 mg/kg/injection, schedule: Q04DX003 (ip), vehicle: water",6 of 8
same,survivor count,"dose: 16.0 mg/kg/injection, schedule: Q04DX003 (ip), vehicle: saline with Tween-80",2 of 6 and 6 of 6
Cn1c(-c2ccccc2)c2c(=O)oc3ccccc3c2c1-c1ccccc1,survivor count,[1],6 of 6
same,survivor count,[2],6 of 6
Cc1cccc(/C(=C/c2ccc([N+](=O)[O-])cc2)C(=O)Nc2ccc(S(=O)(=O)F)cc2)c1,survivor count,"dose: 240.0 mg/kg/injection, schedule: Q01DX005 (ip), vehicle: saline with Tween-80",6 of 6
O=C(O)CCS(=O)(=O)CCC(=O)O,survivor count,"dose: 400.0 mg/kg/injection, schedule: Q04DX003 (ip), vehicle: saline with Tween-80",5 of 6
